These are yes or no findings as the source states them, for the method shown. Some entries that bind do so weakly or less than the wild type.
Target: human Monocyte chemoattractant protein-1 (human) (UniProt P13500)
Test: ELISA, IgG in two-fold dilutions from 5 µg/mL on immobilized human MCP-1 (0.5 µg/mL), peroxidase-labeled anti-human IgG detection

The chains behind the UniProt entries cited, without tags or fusion partners. Residues count along the entry.
UniProt P13500, residues 24-99: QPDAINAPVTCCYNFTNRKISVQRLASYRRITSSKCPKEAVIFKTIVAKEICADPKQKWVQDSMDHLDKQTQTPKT

binding: binds
B1: purified anti-MCP-1 antibody MC32 in the immunoglobulin form (antibody, V domains shown)
VH: QVQLQQSGAEVKKPGSSVKVSCKASGGTFSSYAISWVRQAPGQGLEWMGGFDPEDGETIYAQKFQGRVTMTEDTSTDTAYMELSSLRSEDTAVYYCATDLGGGDYYYGMDVWGPGTTVTVSS
VL: DIQLTQSPSTLSASVGDRATISCRSSQSINTYLHWYQQKPGEAPKLLIYAASTLQSGVPSRFSGSGSGTDFTLTITTLQPEDFATYYCQQSFTTPLTFGGGTKVEIK

— patent publication US20060246069A1
